In patent US11110070B2 (priority 2015, dated 2021):
Entries after “also recorded” stand apart in the source; their conditions may differ.

Test system: 129S6/SvEvTac mice
Assay: 3-shock CFC, extinction and reinstatement paradigm
Format: in vivo
Procedure: A single injection of saline (0.9% NaCl) far ketamine (30 mg kg^−1) (Ketaset III, Ketamine HCl injection, Fort Dodge Animal Health, Forth Dodge, Iowa) was administered once during the course of each experiment.
A 3-shock CFC paradigm was administered as previously described (Drew et al., 2010; Denny et al., 2014). Mice were placed in the conditioning chamber and received 3 shocks 180, 240, and 300 s later (2 s, 0.75 mA) and were removed 15 s following the last shock. All sessions were scored for freezing using FreezeView2http://actimetrics.com/downloads/freezeframe/).
Extinction began 4 days after the initial 3-shock CFC procedure, or 4 days after the reinstatement procedure. Each group of mice was subjected to 2 extinction trials per day. Each extinction trial lasted 30 min, with an intertrial interval of at least 2 h. For each extinction trial, mice were placed in the same box used for CFC without receiving foot shocks. All trials were scored for freezing. The freezing presented throughout the text represents averaged freezing behavior for the first 3 min of each extinction trial.
Reinstatement took place in the same Coulbourn fear conditioning box, but with altered cues. A 1-shock CFC paradigm was administered as previously described (Drew et al., 2010; Denny et al., 2012; Denny et al., 2014), with the exception of two experiments in which the mice were administered 3 shocks.

CNC1(c2ccccc2Cl)CCCCC1=O (racemic) [ketamine, (RS)-2-(2-chlorophenyl)-2-(methylamino)cyclohexanone]
distance traveled during the 3 shock presentations (ketamine 1 week before CFC): traveled comparably | distance traveled during the reinstatement shock presentation (ketamine 1 week prior to 1-shock reinstatement): traveled comparably during the reinstatement shock presentation | distance traveled during the 3 reinstatement shock presentations (ketamine 1 week prior to 3-shock reinstatement): traveled comparably during each of the 3 reinstatement shock presentations | immobility prior to the shock presentation (ketamine 1 h before CFC): increased immobility prior to the shock presentation; also recorded: increased immobility before the shock presentation | distance traveled during the shock presentations (ketamine 1 h before CFC, vs saline): traveled less; also recorded: travel less during the shock presentation | immobility prior to the shock presentation / freezing during CFC training (ketamine 24 h before CFC): did not alter; also recorded: equal levels of freezing behavior during CFC training
